Results are given in words; binding and its absence hold for the method and conditions named. Some entries that bind do so weakly or less than the wild type.
Molecular target: amino acids at positions 418-472 of the human cannabinoid receptor (CB1) fused to the GALA DNA binding domain (human) (UniProt P04386+P21554)
Assay: yeast two-hybrid, beta-galactosidase colour

B1: CRIP1b exon 1 (amino acids 34-60 of SEQ ID NO:2) and exon 2 (amino acids 61-110 of SEQ ID NO:2) in combination (protein, not shown: large carriers)
chain: QNRTIKLLTGSSYKVEVKIKPSTLQVENISIGGVLVPLELKSKEPDGDRVVYTGTYDTEGVTPTKSGERQPIQITMP
binding: binds
